{"source": "patent US9622495B2", "about": "“Methods to decontaminate cereal grains with chlorine dioxide” (Diversey, Inc., priority 2011, dated 2017)", "assay": "Chlorine dioxide residue measurement on treated barley"}
{"molecule": "[O][Cl+][O-]", "note": "[ClO2, chlorine dioxide]", "values": [{"measurement": "Chlorine dioxide in the wash solution of treated barley", "setting": "1 g barley washed with 10 ml deionised water after draining the steeping solution", "result": "less than 0.2 ppm"}, {"measurement": "Chlorine dioxide in malted barley from the treated batch", "setting": "malted barley, data not shown", "result": "free of chlorine dioxide"}]}
